Among all 210,000 compounds or so, about 5,900 (2.8%) were called active. Another 5% or so got no clear call; they are omitted. Calls come from the whole dose curve; as a rule, active = well fitted activation curve with a large enough effect; inconclusive = small, poorly fitted or top-dose-only effect; inactive = no such curve, though single readings can be large or run the other way. The list shows a part of the results, in another mix than the full data. Entries without a call were filed so in the source.
Potency is the fitted concentration of half-maximal effect.

The test can be described thus: qHTS Assay for Enhancers of SMN2 Splice Variant Expression. For activity change, positive = activation: % of control where 0% means no effect. Note: nearly all actives have a fitted effect of over 55% in size. To be noted: HEK293 SMN2-luciferase splicing reporter, luminescence, 30-36 h; activity change, positive = activation: at 46.1 µM (top of the series) unless noted. Put shortly:
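qHTS luciferase splicing reporter: luminescence rises when SMN2 exon 7 is included in transfected HEK293 cells. Compound exposure lasted 30-36 h at 37C, with 4.5 mM final sodium butyrate as control, followed by a ONE-Glo read.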
For orientation: In qHTS, concentration-response curves come from the screen itself.
Turning to `Cc1ccc(Oc2c(C(N)=O)cc([N+](=O)[O-])cc2[N+](=O)[O-])cc1`, the “activity change, positive = activation” value was inactive: -98.1%.

Take `CCCC(C(=O)c1ccccc1)n1cncn1` (stereo not given): the activity change, positive = activation is 62%.

Turning to `O=C(Nc1ccc2c(c1)OCO2)C1CCCN(c2nc3ccccc3s2)C1` (stereo not given), the activity change, positive = activation was -31.1%.

On to `O=C(CSc1ncnc2ccccc12)Nc1cc(S(=O)(=O)N2CCCCC2)ccc1Cl`, for which the “activity change, positive = activation” value is inactive: -33.9%.

As for `CC1(C)NC(=O)N(CC(O)CNC23CC4CC(CC(C4)C2)C3)C1=O` (stereo not given), the activity change, positive = activation worked out at 36.7%.

As to `Cc1nc2cc(-c3ccc(Cl)cc3)nn2c(NCCN(C)C)c1C`, the activity change, positive = activation was -83.4%.

For `c1ccc(-c2nnc(-c3ccccc3)o2)cc1`, the Potency is active: 12.6 µM.

On to `Cc1ccc(OCC(=O)N(Cc2ccccc2)c2ccccn2)cc1`, for which the “activity change, positive = activation” value was inactive: -25.5%.

`COc1ccc(S(=O)(=O)CC2(O)CCN(C(=O)CC(C)C)CC2)cc1`: the activity change, positive = activation was -33.5%.

In the case of `Cc1ccc(-c2nc(N)n(S(C)(=O)=O)n2)cc1`, the activity change, positive = activation came out at 39.1%.

`COc1ccc(COc2cc(-c3cccc(OC)c3)nc3ccc(N)cc23)cc1`: the “activity change, positive = activation” value is inactive: -40.6%.

Turning to `Cc1ccccc1NC(=O)c1sc(NC(=O)COc2ccccc2)c(C#N)c1C`, the “activity change, positive = activation” value was inactive: -47.7%.

As for `CC(C)NS(=O)(=O)c1ccc(CCC(=O)N2CCOCC2)cc1`, the activity change, positive = activation is 32.7%.

Regarding `CCOC(=O)C1CCCN(C(=O)C2CCN(S(=O)(=O)c3cnc[nH]3)CC2)C1` (stereo not given), the activity change, positive = activation came out at 38.2%.

`Cc1ccc(N2CS(=O)(=O)/C(=C/N(C)C)C2=O)cc1`: the Potency was active: 12.6 µM.

`Cc1ccc(CNc2nc(Cl)c(C#N)s2)cc1`: the activity change, positive = activation is 127%.

As for `CSc1ccccc1C(=O)Nc1cccc(N(C)S(C)(=O)=O)c1`, the activity change, positive = activation was 60.4%.

For the compound `CCOC(=O)c1c(NC(=O)CSc2nnc(C)c(=O)[nH]2)sc2c1CCC2`, the activity change, positive = activation worked out at 35.7%.

With `COc1cc(C(C[N+](=O)[O-])c2c(-c3ccccc3)cc3ccccn23)cc(OC)c1OC` (stereo not given), the activity change, positive = activation turned out to be 31.6%.

For the compound `O=C1C2=C(Nc3ccccc3SC2c2ccc(C(F)(F)F)cc2)c2ccccc21` (stereo not given), the “activity change, positive = activation” value is inactive: -73.8%.

Turning to `COCCn1c(=O)[nH]c2cc(C(=O)NCCN3CCN(c4ccc(OC)cc4)CC3)ccc2c1=O`, the “activity change, positive = activation” value was inactive: -57.7%.

On to `C[C@H](Oc1ccc(Oc2cnc3ccc(Cl)cc3n2)cc1)C(=O)O`, for which the activity change, positive = activation was inactive: -5.4% [at 9.22 µM].

In the case of `COc1ccc(NC(=O)CSc2ccc(F)cc2)cc1S(=O)(=O)N1CCCCC1`, the activity change, positive = activation was -45.9%.

Regarding `CC(CN1CCCC(C(N)=O)C1)c1ccccc1` (stereo not given), the activity change, positive = activation stood at 34.6%.

With `O=C(Cn1nnc(-c2ccccc2)n1)N/N=C/c1cc([N+](=O)[O-])ccc1O`, the activity change, positive = activation was -101%.

Regarding `CN1CCN(c2ncc3nc(-c4cc(F)cc(F)c4)c(=O)n(-c4ccccc4)c3n2)CC1`, the “activity change, positive = activation” value was inactive: -28.4%.

Take `CCOC(=O)c1cnn2c(C)cc(-c3ccccc3)nc12`: the Potency was active: 31.6 µM.

As to `Cc1nc2scc(C)n2c(=O)c1S(=O)(=O)Nc1ccc(N2CCN(C(=O)C(C)C)CC2)cc1`, the activity change, positive = activation was -32.8%.

As to `Cc1ccc2oc(=O)c3cnn(CC(=O)N(CCCN4CCOCC4)Cc4ccco4)c3c2c1`, the activity change, positive = activation turned out to be 57.6%.

Turning to `COC(=O)c1nn(-c2ccccc2)c2nnc(Cc3ccc(C)cc3)c(=O)n12`, the activity change, positive = activation was 3.91%.

As for `O=C(CCNC(=O)c1ccccc1Cl)Nc1nccs1`, the activity change, positive = activation is -26%.

Turning to `COC(=O)C(C(=O)Nc1ncccn1)C1CCCCCC1` (stereo not given), the activity change, positive = activation was 41.4%.

With `Nc1nonc1-c1nc2ccccc2n1CC(=O)N1CCN(c2ccc(F)cc2)CC1`, the “activity change, positive = activation” value is inactive: -34.9%.

In the case of `CCn1c(SCC(=O)Nc2ccc(S(=O)(=O)Nc3ccccn3)cc2)nnc1-c1ccncc1`, the activity change, positive = activation worked out at 34.4%.

Turning to `COc1ccc(Cc2nnc(N/N=C/c3ccc(O)cc3O)[nH]c2=O)cc1OC`, the activity change, positive = activation was -83.9%.

Turning to `CCCCCC(=O)N1CCN(CCN=CC2=C(O)CC(c3ccc(OC)c(OC)c3)CC2=O)CC1` (stereo not given), the activity change, positive = activation amounted to 33.1%.

`CCOc1ccc(CCNc2nc3c(c(=O)n(C)c(=O)n3C)n2CC)cc1OCC`: the “activity change, positive = activation” value is inactive: -85.6%.

As to `COc1ccc(C(=O)N/N=C(\c2ccccc2)c2ccccn2)cc1`, the “activity change, positive = activation” value was inactive: -66.9%.

Consider `CCCCn1c(/C=C/c2ccco2)nc2ccccc21`, for which the Potency is active: 15.8 µM.

Regarding `CC(=O)c1c(C)[nH]c(C(=O)Nc2ccc(C)c(C)c2)c1C`, the activity change, positive = activation was 31.9%.

On to `CCC(C)(C(=O)NC1CCCCC1)N(CC1CCCO1)C(=O)c1ccccn1` (stereo not given), for which the activity change, positive = activation was 33.8%.

As to `Cc1cccc(-c2nc(SCC(=O)Nc3ccc4c(c3)OCO4)c(-c3ccccc3)[nH]2)c1`, the “activity change, positive = activation” value was inactive: -49%.

Regarding `CS(=O)(=O)N(CC(=O)N1CCCCCC1)Cc1ccc(Cl)cc1`, the activity change, positive = activation turned out to be 36.1%.

On to `Cc1nnc2ccc(-c3cccc(NC(=O)c4ccc(Br)o4)c3)nn12`, for which the activity change, positive = activation stood at 35.7%.

On to `O=C(NNC(=S)NC(=O)c1sc2ccccc2c1Cl)c1ccc(Cl)cc1`, for which the “activity change, positive = activation” value is inactive: -47.4%.

In the case of `c1ccc(-n2ncc3c(NCCN4CCOCC4)ncnc32)cc1`, the activity change, positive = activation worked out at 41.4%.

On to `CCCC(=O)N1CCN(c2ccc(NC(=S)NC(=O)c3cccc(C)c3)cc2)CC1`, for which the “activity change, positive = activation” value is inactive: -50.5%.

As for `Cc1ccc(N=N/C(=C\O)C(=O)c2ccc(Cl)cc2)cc1`, the activity change, positive = activation is -67.5%.

As for `COc1cc(C(=O)O)cc(NC(=O)c2cccs2)c1OC`, the activity change, positive = activation is 11.4%.

For the compound `CCOC(=O)N1CCC(NC(=O)Cn2c3ccccc3c3cn[nH]c(=O)c32)CC1`, the activity change, positive = activation is 67.1%.

Take `Cn1c2ccccc2c2c(C(=O)NCC3CCCO3)cn(C3CCCC3)c(=O)c21` (stereo not given): the “activity change, positive = activation” value is inactive: -45.4%.

As for `COc1cc(C(=O)N2CCN(C(=O)C3CC3)CC2)cc(OC)c1OC`, the activity change, positive = activation was found to be 33.7%.

Take `COc1cccc(NC(=O)COc2ccc(C)cc2)c1`: the “activity change, positive = activation” value was inactive: -51.4%.

On to `Cc1cccc(Cn2nnc3c2C(=O)c2ccccc2C3=O)c1`, for which the “activity change, positive = activation” value was inactive: -73.8%.

In the case of `COC(=O)C1=C(C(=O)OC)SC2(S1)C(C(=O)OC)=C(C(=O)OC)SC1=C2c2cc(C)ccc2NC1(C)C`, the activity change, positive = activation came to 42.1%.

For the compound `CN(C)S(=O)(=O)c1ccc(NC(=O)c2ccccn2)cc1`, the Potency was active: 11.2 µM.

Turning to `COc1ccc(CCNC(=O)COC(=O)Cc2cccc3ccccc23)cc1`, the activity change, positive = activation worked out at 30.7%.

On to `Cc1ccc(/C=N/NC(=O)c2nn(C)cc2Cl)cc1`, for which the Potency is active: 11.2 µM.

In the case of `COC(=O)c1ccc(/C=N/OCC(=O)NC2CCCC(C)C2C)cc1` (stereo not given), the “activity change, positive = activation” value was inactive: -74.1%.

Regarding `CC(=O)N(\C=C/C=C/C=C1\Sc2ccccc2C1=O)c1ccccc1`, the “activity change, positive = activation” value is inactive: -58.2%.

As for `CC(Oc1ccc2ccccc2c1)C(=O)NNC(=S)NC(=O)c1ccco1` (stereo not given), the activity change, positive = activation was -42%.

Regarding `CC(=O)c1ccc(N2CCN(C(=O)/C=C/c3ccc4ccccc4n3)CC2)cc1`, the “activity change, positive = activation” value is inactive: -75.7%.

Turning to `Cc1c(N/N=C(\C#N)C(=O)c2ccc(Cl)cc2)c(=O)n(-c2ccccc2)n1C`, the activity change, positive = activation is -89.4%.

`CN(C)CCN(C(=O)c1ccc(N2C(=O)CCC2=O)cc1)c1nc2cc3c(cc2s1)OCCO3`: the activity change, positive = activation came out at 31.4%.

`COc1cc(/C=C(\C#N)c2nc3c(s2)CCCC3)ccc1O`: the Potency is active: 22.4 µM.

These data come from PubChem BioAssay AID1458 (National Center for Advancing Translational Sciences (NCATS), 2008).
